Laboratory results taken from the supplement of paper PMC12613149.

Experiment: reversed-phase LC retention time (C18, 15 min MeOH gradient); higher = more hydrophobic / later elution
Conditions: ionization mode: ESI-; ion species: [M-H]-
Method: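 Reference mixture of environmental contaminants analysed by RP-LC (BEH C18, 50 °C; ESI+ with water/MeOH plus formic acid and ammonium formate, ESI- with ammonium bicarbonate) coupled to a timsTOF Pro 2 with trapped ion mobility in nitrogen (ramp/accumulation 100 ms). CCS was calibrated with Agilent tune mix (CCS compendium) and averaged over five injections at 0.5-500 ng/mL. The table reports the lowest-CCS (putative monomer) peak; retention times are on the same gradient.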

Question: For `CC(C)(C)c1ccc(O)cc1` [4-tert-Butylphenol], which “reversed-phase LC retention time” value is on record?
Answer: 14.4 min
